The list shows a part of the results.
Columns and labels:
Assay in all cases: log2 fold change, soluble protein after heating vs DMSO (PISA); higher = thermal stabilisation; K562 cells, 10 uM, 30 min; active = over 0.2 and 3.5 SD of the protein, either way, in both replicates (recomputed)
[1] = compound: COC1=CC=C(C=C1)CN2C=CC3=C2C=C(C=C3)C(=O)NO
Summary of the method: (§1)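 Soluble protein was defined as the supernatant after 21,000xg for 90 min. It came from K562 cells at 2×10^6 cells/mL given 10 μM compound for 30 min, heated in aliquots for 3 min across 48°C-58°C, pooled, and extracted in PBS with 0.5% NP-40 at 4°C, and was quantified by TMTpro 16plex LC-MS/MS with equalised channel sums. Thermal stability against control samples, from duplicates, is reported as log2 fold change.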

By UniProt entry, the sequences of proteins in these tests, tags left out. Where a name states a change or a piece, a line headed by the entry shows the natural chain unless it says otherwise.
UniProt Q9UFW8: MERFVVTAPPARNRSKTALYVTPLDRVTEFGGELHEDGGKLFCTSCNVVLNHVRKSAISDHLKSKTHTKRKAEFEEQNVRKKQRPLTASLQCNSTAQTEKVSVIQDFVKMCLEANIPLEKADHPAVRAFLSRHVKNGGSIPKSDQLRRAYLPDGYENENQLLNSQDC
UniProt Q5SW79: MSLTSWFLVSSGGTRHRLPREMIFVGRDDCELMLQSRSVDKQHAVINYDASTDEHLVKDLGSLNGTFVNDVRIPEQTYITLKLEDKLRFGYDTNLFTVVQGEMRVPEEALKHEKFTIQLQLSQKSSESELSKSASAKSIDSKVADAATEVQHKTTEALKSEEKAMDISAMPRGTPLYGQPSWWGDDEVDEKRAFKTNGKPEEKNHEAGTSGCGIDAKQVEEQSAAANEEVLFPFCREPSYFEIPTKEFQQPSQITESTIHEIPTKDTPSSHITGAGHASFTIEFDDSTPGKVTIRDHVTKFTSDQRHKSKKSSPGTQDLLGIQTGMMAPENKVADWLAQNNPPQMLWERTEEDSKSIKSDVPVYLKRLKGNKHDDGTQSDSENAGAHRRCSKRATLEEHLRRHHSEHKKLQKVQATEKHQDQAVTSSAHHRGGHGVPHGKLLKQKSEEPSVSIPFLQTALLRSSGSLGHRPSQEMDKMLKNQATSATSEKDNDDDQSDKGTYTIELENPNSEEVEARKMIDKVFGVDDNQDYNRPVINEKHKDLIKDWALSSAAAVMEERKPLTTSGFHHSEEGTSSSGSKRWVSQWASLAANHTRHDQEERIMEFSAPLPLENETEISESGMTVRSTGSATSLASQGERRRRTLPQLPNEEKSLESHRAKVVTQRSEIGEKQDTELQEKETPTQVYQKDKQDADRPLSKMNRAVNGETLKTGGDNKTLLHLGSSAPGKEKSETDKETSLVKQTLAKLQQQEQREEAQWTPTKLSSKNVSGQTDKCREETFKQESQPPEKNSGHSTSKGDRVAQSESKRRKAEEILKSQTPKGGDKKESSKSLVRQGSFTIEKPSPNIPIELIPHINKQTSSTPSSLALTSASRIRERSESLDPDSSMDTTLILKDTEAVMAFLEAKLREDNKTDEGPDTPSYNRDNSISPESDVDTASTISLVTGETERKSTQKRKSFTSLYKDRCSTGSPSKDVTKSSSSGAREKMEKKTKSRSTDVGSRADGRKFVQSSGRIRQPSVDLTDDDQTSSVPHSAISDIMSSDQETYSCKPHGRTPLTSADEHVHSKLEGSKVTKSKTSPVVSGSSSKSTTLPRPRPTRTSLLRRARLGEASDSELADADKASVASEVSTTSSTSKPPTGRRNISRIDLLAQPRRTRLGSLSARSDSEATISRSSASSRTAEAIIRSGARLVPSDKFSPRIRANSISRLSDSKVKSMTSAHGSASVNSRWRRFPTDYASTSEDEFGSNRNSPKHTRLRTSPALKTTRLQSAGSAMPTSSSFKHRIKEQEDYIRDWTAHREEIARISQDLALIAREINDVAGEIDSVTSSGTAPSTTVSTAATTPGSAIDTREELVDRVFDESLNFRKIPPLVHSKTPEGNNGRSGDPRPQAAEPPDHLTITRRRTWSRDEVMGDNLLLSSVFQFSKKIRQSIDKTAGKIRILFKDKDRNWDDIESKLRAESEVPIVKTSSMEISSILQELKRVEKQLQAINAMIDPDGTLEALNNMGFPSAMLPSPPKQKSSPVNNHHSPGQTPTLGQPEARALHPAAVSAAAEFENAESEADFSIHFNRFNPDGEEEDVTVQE
UniProt P23528, whole entry, looked up: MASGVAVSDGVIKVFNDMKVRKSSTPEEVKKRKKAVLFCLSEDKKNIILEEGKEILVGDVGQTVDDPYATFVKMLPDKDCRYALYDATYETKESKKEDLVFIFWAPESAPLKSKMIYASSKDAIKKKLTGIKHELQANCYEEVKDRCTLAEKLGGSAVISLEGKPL
UniProt Q92879: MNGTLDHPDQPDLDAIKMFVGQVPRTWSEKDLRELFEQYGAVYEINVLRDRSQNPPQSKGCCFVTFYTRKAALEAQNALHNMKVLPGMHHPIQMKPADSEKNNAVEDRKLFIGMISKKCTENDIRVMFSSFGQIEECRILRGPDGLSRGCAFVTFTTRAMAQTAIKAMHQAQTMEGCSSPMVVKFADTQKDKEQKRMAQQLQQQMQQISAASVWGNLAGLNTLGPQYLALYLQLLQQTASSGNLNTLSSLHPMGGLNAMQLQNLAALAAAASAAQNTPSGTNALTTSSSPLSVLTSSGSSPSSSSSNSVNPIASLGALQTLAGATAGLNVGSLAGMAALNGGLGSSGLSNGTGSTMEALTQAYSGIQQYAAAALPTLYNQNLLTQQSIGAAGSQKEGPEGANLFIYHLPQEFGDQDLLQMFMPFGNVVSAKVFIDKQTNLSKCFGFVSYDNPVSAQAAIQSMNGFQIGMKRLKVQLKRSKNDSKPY
UniProt Q9Y3E7, whole entry, looked up: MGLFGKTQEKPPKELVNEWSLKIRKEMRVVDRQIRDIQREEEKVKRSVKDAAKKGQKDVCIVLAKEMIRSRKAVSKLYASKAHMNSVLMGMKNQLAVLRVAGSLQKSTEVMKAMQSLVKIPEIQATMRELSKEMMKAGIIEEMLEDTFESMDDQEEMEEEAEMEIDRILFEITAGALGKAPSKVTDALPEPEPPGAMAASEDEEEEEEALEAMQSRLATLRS
UniProt P08603, whole entry, looked up: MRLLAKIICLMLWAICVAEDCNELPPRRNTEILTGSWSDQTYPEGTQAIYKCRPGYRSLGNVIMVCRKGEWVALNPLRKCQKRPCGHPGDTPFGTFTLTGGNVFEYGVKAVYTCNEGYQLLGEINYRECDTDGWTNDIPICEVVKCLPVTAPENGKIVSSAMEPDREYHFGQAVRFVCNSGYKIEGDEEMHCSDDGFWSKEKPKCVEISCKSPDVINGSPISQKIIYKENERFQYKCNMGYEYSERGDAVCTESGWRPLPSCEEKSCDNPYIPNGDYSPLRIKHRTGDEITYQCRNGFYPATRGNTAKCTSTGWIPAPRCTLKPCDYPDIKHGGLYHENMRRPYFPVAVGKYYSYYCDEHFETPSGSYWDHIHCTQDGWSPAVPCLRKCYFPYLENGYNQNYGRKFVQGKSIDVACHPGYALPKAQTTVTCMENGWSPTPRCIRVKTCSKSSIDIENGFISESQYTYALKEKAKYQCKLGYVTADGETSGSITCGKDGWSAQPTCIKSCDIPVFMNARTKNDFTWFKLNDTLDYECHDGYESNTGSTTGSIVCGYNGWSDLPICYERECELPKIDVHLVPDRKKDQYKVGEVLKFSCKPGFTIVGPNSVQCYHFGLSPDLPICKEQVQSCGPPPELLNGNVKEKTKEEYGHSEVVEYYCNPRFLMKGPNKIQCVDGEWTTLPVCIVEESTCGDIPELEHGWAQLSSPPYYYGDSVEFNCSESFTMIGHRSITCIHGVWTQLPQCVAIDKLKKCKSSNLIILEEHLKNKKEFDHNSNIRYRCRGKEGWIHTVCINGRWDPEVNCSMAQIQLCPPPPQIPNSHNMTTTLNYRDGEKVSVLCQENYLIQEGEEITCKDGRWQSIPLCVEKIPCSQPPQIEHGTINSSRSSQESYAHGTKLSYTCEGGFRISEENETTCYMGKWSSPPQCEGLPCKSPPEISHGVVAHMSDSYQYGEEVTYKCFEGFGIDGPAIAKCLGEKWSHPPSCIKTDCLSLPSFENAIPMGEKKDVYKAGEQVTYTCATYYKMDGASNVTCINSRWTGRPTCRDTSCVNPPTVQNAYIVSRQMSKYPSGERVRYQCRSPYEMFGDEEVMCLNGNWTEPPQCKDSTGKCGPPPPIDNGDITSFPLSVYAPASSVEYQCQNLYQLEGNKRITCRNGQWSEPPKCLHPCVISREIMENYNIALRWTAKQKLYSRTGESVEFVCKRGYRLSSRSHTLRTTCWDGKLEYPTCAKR
UniProt Q9HD42: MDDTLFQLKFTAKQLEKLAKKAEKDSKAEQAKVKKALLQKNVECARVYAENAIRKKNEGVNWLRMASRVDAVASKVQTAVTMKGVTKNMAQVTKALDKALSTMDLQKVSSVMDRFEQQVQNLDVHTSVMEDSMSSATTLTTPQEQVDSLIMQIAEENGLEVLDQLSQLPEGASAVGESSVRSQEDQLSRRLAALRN
UniProt P50613: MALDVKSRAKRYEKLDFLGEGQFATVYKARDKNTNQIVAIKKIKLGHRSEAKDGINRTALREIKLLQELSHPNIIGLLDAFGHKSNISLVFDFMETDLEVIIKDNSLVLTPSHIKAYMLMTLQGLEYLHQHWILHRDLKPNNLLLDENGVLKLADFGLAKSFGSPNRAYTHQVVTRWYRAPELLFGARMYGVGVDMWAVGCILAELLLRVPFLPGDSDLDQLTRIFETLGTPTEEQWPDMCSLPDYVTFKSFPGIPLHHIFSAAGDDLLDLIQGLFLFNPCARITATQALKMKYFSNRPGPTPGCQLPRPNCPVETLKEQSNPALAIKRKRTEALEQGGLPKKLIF
UniProt Q9Y281, whole entry, looked up: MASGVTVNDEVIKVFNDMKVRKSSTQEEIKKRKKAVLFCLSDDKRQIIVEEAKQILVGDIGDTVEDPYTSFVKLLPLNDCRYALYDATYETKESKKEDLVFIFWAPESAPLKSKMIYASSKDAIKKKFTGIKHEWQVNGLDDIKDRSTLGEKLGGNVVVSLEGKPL
UniProt Q9NZZ3: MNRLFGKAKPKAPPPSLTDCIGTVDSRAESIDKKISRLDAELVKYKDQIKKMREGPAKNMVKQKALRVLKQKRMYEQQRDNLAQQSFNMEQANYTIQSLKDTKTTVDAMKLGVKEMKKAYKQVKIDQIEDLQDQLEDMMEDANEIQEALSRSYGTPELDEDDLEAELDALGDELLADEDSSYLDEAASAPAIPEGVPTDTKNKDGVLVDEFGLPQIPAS
UniProt Q99618: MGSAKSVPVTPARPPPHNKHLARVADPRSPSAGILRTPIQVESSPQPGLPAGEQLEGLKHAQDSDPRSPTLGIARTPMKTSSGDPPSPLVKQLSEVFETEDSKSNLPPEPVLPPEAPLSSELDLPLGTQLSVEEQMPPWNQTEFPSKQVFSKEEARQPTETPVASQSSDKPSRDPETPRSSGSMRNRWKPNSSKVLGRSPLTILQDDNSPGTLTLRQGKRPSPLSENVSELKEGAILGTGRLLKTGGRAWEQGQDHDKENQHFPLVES
UniProt Q8TAP6: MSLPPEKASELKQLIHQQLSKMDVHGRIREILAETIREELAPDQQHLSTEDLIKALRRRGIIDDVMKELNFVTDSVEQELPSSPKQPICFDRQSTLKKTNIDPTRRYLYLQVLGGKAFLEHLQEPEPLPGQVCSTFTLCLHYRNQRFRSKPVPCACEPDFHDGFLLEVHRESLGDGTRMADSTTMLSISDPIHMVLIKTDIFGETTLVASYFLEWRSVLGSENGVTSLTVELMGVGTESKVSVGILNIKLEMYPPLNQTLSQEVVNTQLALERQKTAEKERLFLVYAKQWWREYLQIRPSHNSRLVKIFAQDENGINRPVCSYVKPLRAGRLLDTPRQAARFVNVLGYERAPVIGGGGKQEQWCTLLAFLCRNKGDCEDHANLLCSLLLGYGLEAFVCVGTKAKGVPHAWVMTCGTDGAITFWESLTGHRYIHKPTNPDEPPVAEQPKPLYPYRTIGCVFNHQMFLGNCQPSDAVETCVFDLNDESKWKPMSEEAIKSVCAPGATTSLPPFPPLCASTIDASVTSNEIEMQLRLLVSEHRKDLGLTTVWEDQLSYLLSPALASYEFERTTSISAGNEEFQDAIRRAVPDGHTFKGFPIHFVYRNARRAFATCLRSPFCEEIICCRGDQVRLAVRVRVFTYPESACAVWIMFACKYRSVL
UniProt Q5VV42: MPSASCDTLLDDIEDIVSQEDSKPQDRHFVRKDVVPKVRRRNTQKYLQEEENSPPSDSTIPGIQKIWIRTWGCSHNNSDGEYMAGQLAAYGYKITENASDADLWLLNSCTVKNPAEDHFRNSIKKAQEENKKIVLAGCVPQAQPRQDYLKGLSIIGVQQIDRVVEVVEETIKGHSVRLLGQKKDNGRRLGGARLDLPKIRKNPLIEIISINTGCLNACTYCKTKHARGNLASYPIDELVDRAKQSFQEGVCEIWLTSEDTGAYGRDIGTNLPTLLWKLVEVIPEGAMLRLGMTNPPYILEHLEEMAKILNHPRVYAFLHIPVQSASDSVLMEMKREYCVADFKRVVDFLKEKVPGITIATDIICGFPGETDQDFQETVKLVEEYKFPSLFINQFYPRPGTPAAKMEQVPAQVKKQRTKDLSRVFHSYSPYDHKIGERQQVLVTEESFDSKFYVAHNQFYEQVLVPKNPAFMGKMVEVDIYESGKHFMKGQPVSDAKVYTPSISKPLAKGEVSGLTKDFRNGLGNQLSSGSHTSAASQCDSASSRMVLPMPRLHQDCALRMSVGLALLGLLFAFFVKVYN
UniProt P57076: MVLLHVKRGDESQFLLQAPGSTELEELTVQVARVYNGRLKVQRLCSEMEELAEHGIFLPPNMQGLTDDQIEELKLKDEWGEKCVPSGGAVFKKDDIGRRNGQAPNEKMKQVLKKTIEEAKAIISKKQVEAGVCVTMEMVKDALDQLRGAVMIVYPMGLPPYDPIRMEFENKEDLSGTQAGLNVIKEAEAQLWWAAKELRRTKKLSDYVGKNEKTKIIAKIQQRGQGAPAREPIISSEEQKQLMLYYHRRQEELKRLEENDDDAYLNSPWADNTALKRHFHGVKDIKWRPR

[2] = compound: CON(C)C(=O)N1N=C(c2cc(F)ccc2F)S[C@@]1(CCCN)c1ccccc1 [filanesib]
Summary of the method: as §1

[3] = compound: CO[C@H]1C[C@@H]2CC[C@@H](C)[C@@](O)(O2)C(=O)C(=O)N2CCCC[C@H]2C(=O)O[C@H]([C@H](C)C[C@@H]2CC[C@H](n3cnnn3)[C@H](OC)C2)CC(=O)[C@H](C)/C=C(\C)[C@@H](O)[C@@H](OC)C(=O)[C@H](C)C[C@H](C)/C=C/C=C/C=C/1C [zotarolimus]
Summary of the method: as §1

[4] = compound: COc1cc(C(=O)O)ccc1NC(=O)[C@@H]1N[C@@H](CC(C)(C)C)[C@](C#N)(c2ccc(Cl)cc2F)[C@H]1c1cccc(Cl)c1F [idasanutlin]
Summary of the method: as §1

[5] = compound: COc1cc(Nc2ncc3c(n2)-c2ccc(Cl)cc2C(c2c(F)cccc2OC)=NC3)ccc1C(=O)O [alisertib]
Summary of the method: as §1

[6] = compound: COc1cc2nc(-c3cc(F)ccc3O)nc(N[C@@H]3CNC[C@H]3C(C)(C)O)c2cc1OC
Summary of the method: as §1

[7] = compound: COc1cc2ncnc(Nc3ccc(F)c(Cl)c3)c2cc1OCCCN1CCOCC1 [gefitinib]
Summary of the method: as §1

[8] = compound: COc1cccc2cc(-c3nc([C@H]4CC[C@H](C(=O)O)CC4)n4ncnc(N)c34)[nH]c12
Summary of the method: as §1

[9] = compound: CS(=O)(=O)CCNCc1ccc(-c2ccc3ncnc(Nc4ccc(OCc5cccc(F)c5)c(Cl)c4)c3c2)o1 [lapatinib]
Summary of the method: as §1

[10] = compound: CS(=O)(=O)N1CCN(Cc2cc3nc(-c4cccc5[nH]ncc45)nc(N4CCOCC4)c3s2)CC1 [pictilisib]
Summary of the method: as §1

[11] = compound: CS(=O)(=O)c1ccc(-c2cnc(N)c(C(=O)Nc3ccccc3)n2)cc1
Summary of the method: as §1

[12] = compound: C[C@@H](Oc1cc(-c2cnn(C3CCNCC3)c2)cnc1N)c1c(Cl)ccc(F)c1Cl [crizotinib]
Summary of the method: as §1

[13] = compound: C[C@@H]1COCCN1C2=NC(=NC(=C2)C3(CC3)S(=O)(=O)C)C4=C5C=CNC5=CC=C4
Summary of the method: as §1

[14] = compound: C[C@H](C1=CC=C(C=C1)C(=O)NC2=C3C=CNC3=NC=C2)N
Summary of the method: as §1

[15] = compound: C[C@H](Nc1ncnc2nc[nH]c12)c1cc2cccc(Cl)c2c(=O)n1-c1ccccc1 [duvelisib]
Summary of the method: as §1

[16] = compound: Cc1cc(Nc2cc(CN3CCOCC3)c3nc(C)c(Cc4ccc(Cl)cc4F)n3n2)n[nH]1 [gandotinib]
Summary of the method: as §1

[17] = compound: Cc1cc(Nc2cc(N3CCN(C)CC3)nc(Sc3ccc(NC(=O)C4CC4)cc3)n2)n[nH]1 [tozasertib]
Summary of the method: as §1

[18] = compound: Cc1cc(SCc2sc(-c3ccc(C(F)(F)F)cc3)nc2C)ccc1OCC(=O)O
Summary of the method: as §1

[19] = compound: Cc1ccc(-n2nc(C(C)(C)C)cc2NC(=O)Nc2ccc(OCCN3CCOCC3)c3ccccc23)cc1 [doramapimod]
Summary of the method: as §1

[20] = compound: Cc1ccc(C(=O)N(CCCN)[C@@H](c2nc3cc(Cl)ccc3c(=O)n2Cc2ccccc2)C(C)C)cc1 [ispinesib]
Summary of the method: as §1

Measured: log2 fold change

CGGBP1 (UniProt Q9UFW8)
inactive: [1] -0.041 | [2] -0.02 | [3] -0.009 | [4] 0.007 | [5] -0.076 | [6] 0.044 | [7] -0.016 | [8] -0.061 | [9] 0.081 | [10] -0.062 | [11] -0.068 | [12] -0.033 | [13] -0.05 | [14] -0.002 | [15] -0.036 | [16] 0.088 | [17] 0.056 | [18] -0.068 | [19] 0.018 | [20] -0.084

CEP170 (UniProt Q5SW79)
inactive: [1] -0.018 | [2] 0.199 | [3] 0.026 | [4] 0.148 | [5] -0.051 | [6] -0.181 | [7] 0.005 | [8] -0.049 | [9] 0.13 | [10] 0.091 | [11] 0.009 | [12] -0.12 | [13] -0.098 | [14] 0.166 | [15] -0.085 | [16] 0.057 | [17] -0.04 | [18] -0.016 | [19] 0.203 | [20] -0.169

CFL1 (UniProt P23528)
inactive: [1] -0.045 | [2] -0.077 | [3] 0.025 | [4] -0.028 | [5] -0.059 | [6] -0.024 | [7] -0.009 | [8] -0.041 | [9] 0.03 | [10] -0.002 | [11] -0.01 | [12] 0.046 | [13] 0.015 | [14] -0.189 | [15] -0.025 | [16] -0.038 | [17] 0.086 | [18] -0.001 | [19] -0.004 | [20] 0.118

CHEK2 isoform 9 (UniProt O96017)
inactive: [1] -0.037 | [2] -0.06 | [3] 0.07 | [4] -0.066 | [5] -0.019 | [6] 0.042 | [7] 0.021 | [8] 0.04 | [9] -0.044 | [10] -0.015 | [11] -0.025 | [12] -0.015 | [13] 0.057 | [14] -0.06 | [15] 0.007 | [16] -0.065 | [17] -0.056 | [18] -0.026 | [19] -0.008 | [20] 0.002

CDYL (UniProt Q9Y232)
inactive: [1] 0.047 | [2] 0.026 | [3] 0 | [4] 0.029 | [5] -0.069 | [6] -0.008 | [7] 0.025 | [8] 0.001 | [9] -0.022 | [10] 0.104 | [11] 0.051 | [12] 0.007 | [13] -0.046 | [14] 0.057 | [15] -0.007 | [16] 0.022 | [17] -0.042 | [18] -0.017 | [19] -0.019 | [20] 0.022

CELF1 isoform 4 (UniProt Q92879)
inactive: [1] 0.122 | [2] 0.002 | [3] 0.059 | [4] 0.095 | [5] 0.048 | [6] -0.014 | [7] -0.018 | [8] 0.068 | [9] 0.008 | [10] -0.067 | [11] -0.042 | [12] -0.086 | [13] 0.005 | [14] 0.044 | [15] -0.084 | [16] 0.001 | [17] 0.074 | [18] 0.061 | [19] -0.046 | [20] -0.177

CHMP3 (UniProt Q9Y3E7)
inactive: [1] -0.038 | [2] -0.056 | [3] 0.019 | [4] -0.024 | [5] 0.006 | [6] 0.054 | [7] -0.009 | [8] 0.013 | [9] -0.093 | [10] 0.012 | [11] 0.01 | [12] -0.017 | [13] 0.004 | [14] -0.116 | [15] 0.104 | [16] 0.022 | [17] -0.001 | [18] -0.047 | [19] 0.001 | [20] -0.065

CFH (UniProt P08603)
inactive: [1] -0.039 | [2] 0.052 | [3] -0.022 | [4] 0.111 | [5] -0.145 | [6] 0.025 | [7] 0.301 | [8] -0.073 | [9] 0.038 | [10] 0.044 | [11] -0.043 | [12] 0.012 | [13] -0.066 | [14] 0.009 | [15] 0.039 | [16] 0.067 | [17] -0.015 | [18] -0.032 | [19] 0.1 | [20] 0.107

CHMP1A (UniProt Q9HD42)
inactive: [1] 0.026 | [2] -0.043 | [3] -0.013 | [4] 0.033 | [5] -0.053 | [6] 0.023 | [7] -0.013 | [8] 0.011 | [9] -0.017 | [10] -0.016 | [11] 0.01 | [12] -0.104 | [13] 0.01 | [14] -0.044 | [15] 0.013 | [16] 0.017 | [17] -0.023 | [18] 0.004 | [19] -0.023 | [20] -0.068

CDK7 (UniProt P50613)
inactive: [1] 0.004 | [2] 0.004 | [3] -0.012 | [4] 0.011 | [5] -0.062 | [6] 0.059 | [7] -0.023 | [8] 0.06 | [9] 0.003 | [10] -0.024 | [11] 0.034 | [12] 0.024 | [13] -0.058 | [14] 0.001 | [15] -0.01 | [16] 0.083 | [17] -0.009 | [18] -0.012 | [19] 0.001 | [20] 0.104

CFL2 (UniProt Q9Y281)
inactive: [1] -0.105 | [2] -0.022 | [3] 0.044 | [4] -0.028 | [5] 0.006 | [6] 0.109 | [7] -0.011 | [8] 0.042 | [9] -0.019 | [10] -0.053 | [11] 0.065 | [12] 0.083 | [13] 0.099 | [14] -0.089 | [15] 0.099 | [16] 0.01 | [17] 0.061 | [18] 0.031 | [19] -0.016 | [20] 0.168

CHMP5 (UniProt Q9NZZ3)
inactive: [1] -0.001 | [2] -0.031 | [3] -0.033 | [4] 0.001 | [5] -0.048 | [6] -0.007 | [7] 0.013 | [8] 0.046 | [9] 0.026 | [10] 0.006 | [11] 0.011 | [12] 0.01 | [13] 0.053 | [14] -0.015 | [15] 0.016 | [16] 0.009 | [17] -0.032 | [18] -0.015 | [19] -0.051 | [20] 0.003

CDCA3 (UniProt Q99618)
inactive: [1] 0.035 | [2] 0.031 | [3] -0.025 | [4] 0.039 | [5] -0.062 | [6] 0.029 | [7] 0.005 | [8] 0.028 | [9] -0.02 | [10] -0.04 | [11] 0.028 | [12] 0.034 | [13] 0.063 | [14] -0.043 | [15] 0.043 | [16] 0.011 | [17] -0.042 | [18] -0.069 | [19] -0.016 | [20] -0.044

CEP76 (UniProt Q8TAP6)
inactive: [1] -0.04 | [2] 0.048 | [3] -0.027 | [4] -0.022 | [5] -0.029 | [6] 0.039 | [7] 0.02 | [8] 0.087 | [9] -0.074 | [10] -0.015 | [11] 0.006 | [12] 0.055 | [13] 0.011 | [14] 0.084 | [15] 0.081 | [16] 0.019 | [17] -0.018 | [18] -0.008 | [19] -0.016 | [20] 0.065

Two successive records from above, for reference:
CDK7 (UniProt P50613)
inactive: [1] 0.004 | [2] 0.004 | [3] -0.012 | [4] 0.011 | [5] -0.062 | [6] 0.059 | [7] -0.023 | [8] 0.06 | [9] 0.003 | [10] -0.024 | [11] 0.034 | [12] 0.024 | [13] -0.058 | [14] 0.001 | [15] -0.01 | [16] 0.083 | [17] -0.009 | [18] -0.012 | [19] 0.001 | [20] 0.104

CFL2 (UniProt Q9Y281)
inactive: [1] -0.105 | [2] -0.022 | [3] 0.044 | [4] -0.028 | [5] 0.006 | [6] 0.109 | [7] -0.011 | [8] 0.042 | [9] -0.019 | [10] -0.053 | [11] 0.065 | [12] 0.083 | [13] 0.099 | [14] -0.089 | [15] 0.099 | [16] 0.01 | [17] 0.061 | [18] 0.031 | [19] -0.016 | [20] 0.168

Later entries:

CDKAL1 (UniProt Q5VV42)
inactive: [1] -0.147 | [2] 0 | [3] -0.048 | [4] -0.084 | [5] -0.01 | [6] 0.012 | [7] -0.016 | [8] -0.013 | [9] 0.004 | [10] 0.041 | [11] 0.059 | [12] -0.071 | [13] 0.066 | [14] 0.05 | [15] -0.029 | [16] 0.056 | [17] -0.014 | [18] 0.006 | [19] 0.044 | [20] -0.087

CFAP298 (UniProt P57076)
inactive: [1] 0.011 | [2] 0.185 | [3] 0.105 | [4] 0.268 | [5] -0.053 | [6] -0.097 | [7] 0.028 | [8] -0.249 | [9] 0.069 | [10] 0.098 | [11] -0.15 | [12] -0.128 | [13] -0.227 | [14] 0.306 | [15] -0.099 | [16] 0.053 | [17] 0.257 | [18] 0.109 | [19] 0.202 | [20] -0.244

Source: the supplement of paper PMC10849652
